## Library screen at single concentrations

The filed quantity is “Percent Effect” (%). The controls that fix the scale are not given in the record; negative values are as filed. The compounds are a random part of those screened. Two or more numbers in one place are separate tests of the same structure; such repeats can differ widely.

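Growth of Mycobacterium tuberculosis over 4 days (cholesterol / DPPC medium with tyloxapol); the read-out is not stated. Compounds at 50 µM. Direction is inferred from retests: higher values go with more growth inhibition. Of about 69,000 compounds tested this way, about 370 (0.54%) reached 50% or more in at least one test.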

| # | Compound | percent effect |
|---|---|---|
| 1 | `CCc1ncc(CN2CCC(CCc3ccccc3)CC2)cn1` | -33.02 |
| 2 | `CCN1CCC(NC(=O)NC2CCOc3ccc(Br)cc32)CC1` (stereo not given) | -23.58 |
| 3 | `CCOc1cc(C)nc(N2CCN(C(=O)c3cscn3)CC2)n1` | 4.778 |
| 4 | `C[C@@H]1CN(c2cccnn2)CC[C@@]1(O)C1CCOCC1` | 14.83 |
| 5 | `CCc1nnc(Nc2cc(C)nc(C3CN(C(C)=O)CCO3)c2)s1` (stereo not given) | -1.308 & -9.729 |
| 6 | `Cc1nnc2n1CCN(C(C(=O)NC1CC1)c1ccc(F)cc1)C2` (stereo not given) | -10.57 |
| 7 | `CNS(=O)(=O)c1ccc(CNC(=O)N(C)CC(C)C)cc1` | -12.54 |
| 8 | `Cc1nc(C)n(CC2CCCN2CCOc2ccc(C#N)cc2)n1` (stereo not given) | 3.049 |
| 9 | `Oc1cc(C2CCCCN2C2CCCC2)nc(-c2ccncc2)n1` (stereo not given) | -9.083 |
| 10 | `C[C@@H]1CN(Cc2cn(C)nc2-c2ccccc2F)C[C@H](C)O1` | 10.89 |
| 11 | `CCCc1cc(C(=O)N2Cc3cnc(C(C)(C)C)nc3C2)ccn1` | -2.045 & -2.629 |
| 12 | `Cc1ncc(C(=O)N2CCCC(C(=O)c3nccn3C)C2)c(O)n1` (stereo not given) | -9.01 |
| 13 | `CCN(CC1CCOC1)C(=O)c1ccn(-c2cc(C)ccc2OC)n1` (stereo not given) | 4.677 |
| 14 | `O=C(O)C(F)(F)F.O=C(O)C(F)(F)F.[H][C@@]12CO[C@@H](CN3CCOCC3)[C@]1([H])CCN(Cc1ccsc1)C2` | 4.724 |
| 15 | `CCn1cnnc1CNC(=O)N1CCC(C(=O)NC)CC1` | -28.03 |
| 16 | `N#Cc1cn(C2CC2)c(=O)n(Cc2noc(-c3ccsc3)n2)c1=O` | -24.54 |
| 17 | `CN(Cc1ncc(-c2ccccc2)o1)CC1CCCN1c1cccnn1` (stereo not given) | 16.14 |
| 18 | `O=C(Nc1ccccn1)N(CCO)Cc1ccsc1` | -2.839 |
| 19 | `O=C(N[C@@H]1CCC[C@@H](N2CCOCC2)[C@@H]1O)c1ncccn1` | -28.57 |
| 20 | `[H][C@@]12COC[C@]1(CNS(C)(=O)=O)CN(C(=O)c1ccoc1)C2` | 14.17 |
| 21 | `Cc1cc2nc(C(C)C)cc(N3CCC(N(C)C)C3)n2n1` (stereo not given) | 18.37 |
| 22 | `CC(C)S(=O)(=O)CC(=O)N1CCCC(n2ccnc2)C1` (stereo not given) | -29.57 |
| 23 | `CS(=O)(=O)c1ccc2c(c1)N(C(=O)Cc1cccc(F)c1)CCC2` | -4.87 |
| 24 | `CC(Cc1ccco1)NC(=O)Nc1ccc(S(C)(=O)=O)nc1` (stereo not given) | 1.984 |
| 25 | `O=C(O)C(F)(F)F.O=C(O)C(F)(F)F.[H][C@]12CC(=O)N(Cc3cccc(C)n3)[C@@]1([H])CCN2Cc1ccco1` | 2.676 & -11.4 |
| 26 | `CC(C)OCCOCc1cccc(NC(=O)N2CCCC(O)C2)c1` (stereo not given) | -3.737 |
| 27 | `COc1ccc(CN2CCC(C(N)=O)C2)c(Br)c1OC` (stereo not given) | 6.64 |
| 28 | `CN(C)CCCNC(=O)c1cc(-c2ccc3c(c2)CCO3)n[nH]1` | -11.98 |
| 29 | `Fc1ccc(CCN2CCC(c3nnc(-c4cccnc4)o3)CC2)cc1` | -29.72 |
| 30 | `COc1ccc(CN(C)C(=O)c2nnc(CN(C)C)o2)cc1` | -26.1 |
| 31 | `O=C(NCC(F)F)c1ccc(S(=O)(=O)N2CCCC(O)C2)cc1` (stereo not given) | 23.56 |
| 32 | `[H][C@@]12COCC[C@]1([H])C[C@H](N(CC(=O)O)C(=O)c1ccccc1)C2` | -4.427 |
| 33 | `COc1cc2c(cc1C(=O)N1CC(c3ccncc3)C1)CCC2` | -22.93 |
| 34 | `O=C(c1ccc2nccn2c1)N(CCO)Cc1ccccc1F` | -14.34 |
| 35 | `CCOc1ccc(NC(=O)C2OC(c3cccs3)=NN2C(C)=O)cc1` (stereo not given) | -10.22 |
| 36 | `Cc1ccc(C(=O)Nc2nc(C)no2)cc1` | -6.459 |
| 37 | `[H][C@]12CN(c3ccc(C)nn3)CC[C@@]1(O)CCN(S(C)(=O)=O)C2` | -3.645 |
| 38 | `Cc1cnc(NC(=O)CSC2CCc3ccccc3NC2=O)s1` (stereo not given) | 34.29 |
| 39 | `[H][C@@]12COC[C@]1(COc1ccc(C#N)cn1)CN(c1cc(OC)ncn1)C2` | -1.088 |
| 40 | `O=C(c1ccc(F)c(F)c1)N1CCCCC1c1nc[nH]n1` (stereo not given) | -2.988 |
| 41 | `COCC(c1cccc(C(F)(F)F)c1)N(C)C(=O)c1ccccn1` (stereo not given) | -6.465 |
| 42 | `O=C(Cc1cc(F)cc(Cl)c1)N[C@@H]1CCNC[C@H]1O` | -15.46 |
| 43 | `COC(=O)c1cc2c(OC)c(OC)c(OC)cc2[nH]1` | -1.77 |
| 44 | `CC(C)(C)c1nc(CN2CCCC2Cn2cncn2)no1` (stereo not given) | -5.617 |
| 45 | `Cc1cc(CN(C)CCC(O)c2ccccc2)no1` (stereo not given) | -2.413 |
| 46 | `Cc1ccccc1C(C(=O)N1CCN(C(=O)c2ccc[nH]2)CC1)N(C)C` (stereo not given) | 14.88 |
| 47 | `CC(C)[C@H]1CN(Cc2nccn2C)C[C@@H]1NC(=O)COCC(N)=O` | 19.9 |
| 48 | `CC(C)Sc1ccc(C(C)NC(=O)CNS(C)(=O)=O)cc1` (stereo not given) | 16.45 |
| 49 | `CCc1cnc(CN(C)C(=O)Nc2cnc3c(c2)c(C)nn3C)s1` | 18.64 |
| 50 | `CCc1ccc(CCn2cnc(C#N)n2)cc1` | 24.87 |
| 51 | `Cc1nsc(C(=O)NCCc2cccs2)n1` | 47.14 |
| 52 | `CCn1cc(NC(=O)NCC(c2cccc(OC)c2)N(C)C)cn1` (stereo not given) | 10.38 |
| 53 | `Cc1ncsc1C(=O)NC1CCN(Cc2ccc(C(N)=O)cc2)CC1` | 25.52 |
| 54 | `CN1CCc2ncc(CNC(=O)c3cccn3C)n2CC1.O=C(O)C(F)(F)F` | -5.965 |
| 55 | `COC(=O)N1CCC(Nc2cccc(F)c2C#N)CC1` | 0.2017 & -5.62 |
| 56 | `NC(=O)CNC(=O)c1cc(Cn2cnc3ccccc32)[nH]n1` | -5.681 |
| 57 | `COc1ccc(CCC2CCCN(C(=O)CCc3cc(O)no3)C2)cc1` (stereo not given) | -20.11 |
| 58 | `CC(C)NC(=O)CC1CC2(CCN(CC3CC3)CC2)Oc2ccccc21.O=C(O)C(F)(F)F` (stereo not given) | -25.26 |
| 59 | `CCc1cnc(CN(C(C)=O)C2CCN(CCc3cccs3)C2)o1` (stereo not given) | -17.01 |
| 60 | `Cc1ccc2c(n1)N(Cc1cccnc1)CCN(C(=O)C1CC=CC1)C2` | 1.083 |
| 61 | `Nc1cc(CCC2CN(Cc3ccc4cc[nH]c4c3)CCO2)ccn1` (stereo not given) | -12.19 |
| 62 | `CCn1cncc1CN1CCc2nc3sccc3c(=O)n2CC1` | 0.9958 & 5.943 |
| 63 | `COc1ccc(-c2noc(C3=NN(C)C(=O)CC3)n2)cc1OC` | -0.3241 |
| 64 | `CS(=O)(=O)N1CCc2c(nnn2CC2CC2)C1COCC1CC1` (stereo not given) | 5.634 |
| 65 | `CCC(CC)(CNC(=O)c1cccn1Cc1cccnc1)N(C)C` | -19.17 |
| 66 | `O=C(c1ccc(-n2cccn2)nc1)N1CCC(c2ccn[nH]2)C1` (stereo not given) | -0.7802 |
| 67 | `OCC1(O)CCN(c2ccnc3c(C(F)(F)F)cccc23)CC1` | 4.868 |
| 68 | `Cc1cc(C)n(CC2CCCN2C(=O)CCc2ccco2)n1` (stereo not given) | 3.965 |
| 69 | `CN(C)C(CNc1c(NCc2ccco2)c(=O)c1=O)c1ccccc1` (stereo not given) | 9.028 |
| 70 | `Cc1cc(C(=O)NCc2cnn(C)c2C)nc(N2CCCCCC2)n1` | 29.94 |
| 71 | `COc1ccc(C(=O)N2CCC(Oc3ccccc3)(C(=O)O)CC2)o1` | -14.05 |
| 72 | `O=C(N[C@@H]1CNCCC[C@H]1O)c1ccc(OCCN2CCCC2)cc1` | 16.45 |
| 73 | `CC(C)N1CCC2(C=C(C(=O)N(C)C)c3ccccc32)CC1.O=C(O)C(F)(F)F` | 5.721 |
| 74 | `CCN1CCC2(CC1)CC(NC(=O)NC)c1cc(C)ccc12.O=C(O)C(F)(F)F` (stereo not given) | 19.9 |
| 75 | `Cc1noc(C)c1C(=O)N(C)C(C)c1ccc(S(C)(=O)=O)cc1` (stereo not given) | 27.41 |
| 76 | `Cc1noc(C)c1Cc1nc(C2CC2)no1` | -23.4 |
| 77 | `Cc1cc(C)nc(N2CCC(NCCSc3nnnn3C)CC2)n1` | -3.911 |
| 78 | `[H][C@@]12CCN(C[C@@H]1CC)[C@@H](CNCc1ccc(OC)cc1)C2` | 13.47 |
| 79 | `[H][C@@]12C[C@H](C(=O)Nc3ccccc3)[C@@]([H])(CN(S(=O)(=O)C3CC3)C1)O2` | -16.67 |
| 80 | `COc1ccc(OCCN2CCOCS2(=O)=O)cc1` | -6.06 |
| 81 | `CN(C)c1cnn(Cc2nc3ccccc3n2C)c(=O)c1` | 11.01 |
| 82 | `O=C(O)C(F)(F)F.[H][C@@]12CN(CC)C[C@]1([H])[C@H](OC)CCN2C(=O)Cc1ccsc1` | 17.02 |
| 83 | `NC(=O)CCn1ccc(NC(=O)C2(c3ccc(F)cc3)CCC2)n1` | 4.751 & -10.25 |
| 84 | `CC(C)(C)c1nnc2n1C(C(=O)N1CCCC1)CC2` (stereo not given) | -15.83 |
| 85 | `O=C(CCc1ccccc1)NCC1CCN(Cc2ccsc2)CC1` | -5.097 |
| 86 | `CN(Cc1ccccc1OC(F)(F)F)C(=O)C1CCCN(C(N)=O)C1` (stereo not given) | -3.345 & 2.987 |
| 87 | `O=C(Nc1nncs1)N1CCCN(C2CCCC2)CC1` | -13.88 |

7 of the entries, repeated:

* Cc1ccccc1C(C(=O)N1CCN(C(=O)c2ccc[nH]2)CC1)N(C)C (stereo not given) : 14.88%
* O=C(c1ccc(-n2cccn2)nc1)N1CCC(c2ccn[nH]2)C1 (stereo not given) : -0.7802%
* CNS(=O)(=O)c1ccc(CNC(=O)N(C)CC(C)C)cc1 : -12.54%
* CN(C)C(CNc1c(NCc2ccco2)c(=O)c1=O)c1ccccc1 (stereo not given) : 9.028%
* [H][C@@]12COC[C@]1(COc1ccc(C#N)cn1)CN(c1cc(OC)ncn1)C2 : -1.088%
* CCC(CC)(CNC(=O)c1cccn1Cc1cccnc1)N(C)C : -19.17%
* [H][C@@]12COC[C@]1(CNS(C)(=O)=O)CN(C(=O)c1ccoc1)C2 : 14.17%

Data taken from ChEMBL document CHEMBL3988442, “University of Dundee, Small-Polar-MMV Screening Library” (2021).